Experimental data from the supplement of paper PMC11150407.
Counter-ions that a name gives are not always drawn. Hit rate of the full screen: of about 2,100 compounds, about 180 (8.6%) showed an effect of 50% or more. The list shows a part of the results.

system: MOLM1 and UCSD/AML1 (averaged); test: cell viability relative to DMSO control (POC); higher = less growth inhibition; conditions: 1 µM; 72 h
Method: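 Primary viability screen in the 3q26 EVI1-high AML cell lines MOLM1 and UCSD/AML1 (1.5e3 cells/well, 384-well), compounds at 1 uM for 72 h. ATP CellTiter-Glo read-out given as percent of viable cells over DMSO control (POC), averaged over duplicates. DMSO was the negative control and 5 uM etoposide the positive control. This mapping covers the MicroSource Spectrum and Selleck anticancer libraries (drug names).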

SMILES	cell viability
COc1ccc(C2=N[C@@H](c3ccc(Cl)cc3)[C@@H](c3ccc(Cl)cc3)N2C(=O)N2CCNC(=O)C2)c(OC(C)C)c1 [Nutlin-3]	74.2%
CN/C(=N\CCSCc1nc[nH]c1C)NC#N	91%
N[C@@H](CSCSC[C@H](N)C(=O)O)C(=O)O	99.3%
NC(=O)c1ccc(I)c([N+](=O)[O-])c1 [Iniparib (BSI-201)]	103%
CC(=O)O[C@@H]1C=C[C@]2(C)C(C[C@@H](OC(C)=O)[C@]3(C)C4=CC(=O)O[C@H](c5ccoc5)[C@@]4(C)CCC23)C1(C)C (stereo not given in full)	94.4%
O=C(O)c1cc(/N=N/c2ccc(S(=O)(=O)Nc3ccccn3)cc2)ccc1O	101%
C(=C\c1ccccc1)/CN1CCN(C(c2ccccc2)c2ccccc2)CC1	97.7%
C[C@@H]1C[C@H]2[C@@H]3CCC4=CC(=O)C=C[C@]4(C)[C@@]3(F)[C@@H](O)C[C@]2(C)[C@@]1(O)C(=O)COP(=O)(O)O	78.1%
C[C@]12CC[C@@H]3c4ccc(OC(=O)c5ccccc5)cc4CC[C@H]3[C@@H]1CC[C@@H]2O	90%
Cc1ccc(F)c(NC(=O)Nc2ccc(-c3cccc4[nH]nc(N)c34)cc2)c1 [Linifanib (ABT-869)]	66.1%
CC(C)OC(=O)C1=CN(C(=O)c2ccc(F)c(F)c2)CC(C)(C)c2c1[nH]c1ccccc21 [Turofexorate Isopropyl (XL335)]	85.6%
CN1CCN(C(c2ccccc2)c2ccccc2)CC1	102%
OCCN(CCO)c1nc(N2CCCCC2)c2nc(N(CCO)CCO)nc(N3CCCCC3)c2n1	104%
Cc1ccc(NC(=O)c2cccc(C(C)(C)C#N)c2)cc1Nc1ccc2ncn(C)c(=O)c2c1	42.7%
CC[C@H](CO)Nc1nc(NCc2ccccc2)c2ncn(C(C)C)c2n1 [Roscovitine (Seliciclib, CYC202)]	106%
O=C(O)c1ccccc1C(=O)Nc1ccc(S(=O)(=O)Nc2nccs2)cc1	111%
C[N+](C)(C)CC(=O)O	101%
NC[C@@H]1O[C@@H](O[C@H]2[C@H](O)[C@@H](O[C@H]3O[C@H](CO)[C@@H](O)[C@H](N)[C@H]3O)[C@H](N)C[C@@H]2N)[C@@H](O)[C@H](O)[C@H]1O	109%
CC1CC(OC(=O)c2ccccc2O)CC(C)(C)C1 (stereo not given)	87.2%
C[C@H](CCC(=O)O)[C@H]1CC[C@H]2[C@@H]3[C@@H](O)C[C@@H]4C[C@H](O)CC[C@]4(C)[C@H]3CC[C@]12C	94.9%

SMILES	cell viability
O=C(CCCN1CCN(c2ccccn2)CC1)c1ccc(F)cc1	102%
CN1CCC(=C2c3ccccc3Sc3ccccc32)CC1	92.2%
COC1=CC(=O)C(C(=O)c2ccccc2)=CC1=O	103%
N[C@@H](Cc1cc(I)c(Oc2ccc(O)c(I)c2)c(I)c1)C(=O)O	92.2%
N[C@@H](Cc1cc(I)c(Oc2ccc(O)c(I)c2)c(I)c1)C(=O)O [LIOTHYRONINE (L- isomer) SODIUM]	93.1%
CS(=O)(=O)OCCCCOS(C)(=O)=O	109%
CS(=O)(=O)OCCCCOS(C)(=O)=O [Busulfan (Myleran, Busulfex)]	74.3%
O=C(/C=C/c1ccc(O)cc1)c1ccc(O)cc1O	62.7%
Cc1c(NC(=O)c2cccnc2)c(=O)n(-c2ccccc2)n1C	85.6%
OCc1c[nH]c2ccccc12	87.2%
COc1ccc(-c2coc3c(O)c(O)c(OC)cc3c2=O)cc1	111%
N#CCNC(=O)c1ccc(-c2ccnc(Nc3ccc(N4CCOCC4)cc3)n2)cc1 [Momelotinib (CYT387)]	51.4%
N[C@@H](Cc1c[nH]c2ccccc12)C(=O)O	89.5%
O=C(OOC(=O)c1ccccc1)c1ccccc1	101%
CCC1(C)OC(=O)N(C)C1=O (stereo not given)	115%
CC(O)Cn1cnc2c1c(=O)n(C)c(=O)n2C (stereo not given)	94.4%
NS(=O)(=O)c1cc2c(cc1C(F)(F)F)NCNS2(=O)=O	102%
NC(=O)CCCCC1CCSS1 (stereo not given)	94.1%
COc1cc2nccc(Oc3ccc(NC(=O)NC4CC4)c(Cl)c3)c2cc1C(N)=O [E7080 (Lenvatinib)]	58%
CN1C(=O)CC[C@H]1c1cccnc1	99.9%

Taken from above:
Cc1c(NC(=O)c2cccnc2)c(=O)n(-c2ccccc2)n1C | cell viability: 85.6%
N[C@@H](Cc1cc(I)c(Oc2ccc(O)c(I)c2)c(I)c1)C(=O)O [LIOTHYRONINE (L- isomer) SODIUM] | cell viability: 93.1%

Later entries:

SMILES	cell viability
CC[C@@H]1C(=O)OC[C@@H]1Cc1cncn1C	101%
O=c1oc2c(O)c(O)cc3c(=O)oc4c(O)c(O)cc1c4c23	90.8%
NC(=O)NCCC[C@H](N)C(=O)O	93.7%
NS(=O)(=O)c1cc2c(cc1Cl)NC(C1CC3C=CC1C3)NS2(=O)=O (stereo not given)	103%
O=C1NS(=O)(=O)c2ccccc21	101%
CC(=O)CC(c1ccccc1)c1c(O)c2ccccc2oc1=O (stereo not given)	90.2%
CCN(CC)CC(=O)Nc1c(C)cccc1C	91.2%
CC(C=CC(=O)NO)=CC(C)C(=O)c1ccc(N(C)C)cc1 (stereo not given) [Trichostatin A (TSA)]	1.52%
CC(=O)OCC(=O)[C@@]12OC(C)(C)O[C@@H]1C[C@H]1[C@@H]3C[C@H](F)C4=CC(=O)C=C[C@]4(C)[C@@]3(F)[C@@H](O)C[C@@]12C	69.7%
c1ccc2c(CC3=NCCN3)cccc2c1	67.8%
C=CC1=C(C(=O)O)N2C(=O)[C@@H](NC(=O)/C(=N\O)c3csc(N)n3)[C@H]2SC1	88%
OCc1ccccc1O[C@@H]1O[C@H](CO)[C@@H](O)[C@H](O)[C@H]1O	96.8%
CC(=O)NS(=O)(=O)c1ccc(N)cc1	104%
Oc1ccc([C@H]2Oc3cc(O)cc(O)c3C[C@H]2O)cc1	102%
COc1cccc2c1C(=O)c1c(O)c3c(c(O)c1C2=O)C[C@@](O)(C(C)=O)C[C@@H]3O[C@H]1C[C@H](N)[C@H](O)[C@H](C)O1	1.85%
COc1cccc2c1C(=O)c1c(O)c3c(c(O)c1C2=O)C[C@@](O)(C(C)=O)C[C@@H]3O[C@H]1C[C@H](N)[C@H](O)[C@H](C)O1 [Daunorubicin HCl (Daunomycin HCl)]	1.38%
CC(C)c1c(O)ccc2c1CC[C@H]1C(C)(C)CCC[C@]21C	90.4%
CCCC1O[C@@H]2C[C@H]3[C@@H]4CCC5=CC(=O)C=C[C@]5(C)[C@H]4[C@@H](O)C[C@]3(C)[C@]2(C(=O)CO)O1 (stereo not given in full)	80.2%
O=NN(CCCl)C(=O)NCCCl	82.2%
CCOC(=O)c1ncn2c1CN(C)C(=O)c1cc(F)ccc1-2	93.5%
